Construct, isoform or probe ends are uncertain for at least one entry. Weaker means in comparison with the reference protein, sequence or condition of that experiment.
Target: SERF2 all conserved lysines of both interfaces mutated (Homo sapiens) (UniProt P84101)
Assay: EMSA
Settings: 5 uM each, further reduced; recombinant protein; residues 1-59; label: 6-FAM (FP), unlabelled in NMR/EMSA

Protein sequences, listed by entry. Tags and fused reporters are not part of them.
UniProt P84101, whole entry, stated change not applied: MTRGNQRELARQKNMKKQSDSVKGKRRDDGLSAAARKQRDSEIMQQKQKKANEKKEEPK

Q: Does UAGGGUUAGGGUUAGGGUUAGGG [TERRA23 rG4] bind?
A: binds more weakly
